Measurements taken from PubChem BioAssay AID2551 (National Center for Advancing Translational Sciences (NCATS), 2010).
The campaign covered roughly 310,000 compounds. About 17,000 (5.5%) were called active. The shares of active, inactive and inconclusive entries below differ from those in the screen. Calls follow the shape of the dose curve; as a rule, active = well fitted inhibition curve with a large enough effect; inconclusive = small, poorly fitted or top-dose-only effect, or effect the other way; inactive = no such curve, though single readings can be large or run the other way. A potency beside an inconclusive call is a rough fit, not a confirmed value.

Amino acid sequences for entries named in this document (tags omitted). A change or cut given only in a name is not applied to a line headed by its entry.
UniProt P51450: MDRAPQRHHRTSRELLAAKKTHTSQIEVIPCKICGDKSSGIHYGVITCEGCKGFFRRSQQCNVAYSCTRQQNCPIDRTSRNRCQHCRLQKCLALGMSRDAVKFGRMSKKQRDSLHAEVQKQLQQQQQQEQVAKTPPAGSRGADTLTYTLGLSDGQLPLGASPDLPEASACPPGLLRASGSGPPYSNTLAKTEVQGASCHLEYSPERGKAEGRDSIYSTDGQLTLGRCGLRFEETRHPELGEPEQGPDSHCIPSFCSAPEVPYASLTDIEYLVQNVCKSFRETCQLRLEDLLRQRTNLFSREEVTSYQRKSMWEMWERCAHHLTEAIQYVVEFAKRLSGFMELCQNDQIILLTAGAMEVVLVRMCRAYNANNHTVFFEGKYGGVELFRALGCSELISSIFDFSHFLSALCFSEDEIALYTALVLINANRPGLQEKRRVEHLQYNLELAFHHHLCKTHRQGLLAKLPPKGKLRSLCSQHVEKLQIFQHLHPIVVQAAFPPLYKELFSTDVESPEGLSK

Biological target: Nuclear receptor ROR-gamma (Mus musculus) (UniProt P51450)
Assay: qHTS for inhibitors of ROR gamma transcriptional activity; also: nearly all actives have a fitted effect of over 60% in size
Conditions: Drosophila S2 Gal4-RORgamma UAS-luciferase reporter, 20 h; activity change, negative = inhibition: at 53.6 µM (top of the series)
From the text: NIH Molecular Libraries Probe Production Network [MLPCN] NIH Chemical Genomics Center [NCGC] MLPCN Grant: R03 DA026211-01 Assay Provider: Dan Littman, New York University Assay Overview: The retinoic acid-related orphan receptor (ROR) gamma is a transcription factor that has a central role in the differentiation of Th17 cells, a subset of T helper cells that secrete the inflammatory cytokines IL-17, IL-17F, and IL-22. Th17 cells have been implicated in graft versus host disease, autoimmune disease and asthma. ROR gamma is induced in naive T helper cells in the presence of TGF-beta combined with IL-6, IL-21, or IL-23, and thereafter directs the expression of the Th17 lineage cytokines. To study the mechanism of action of ROR gamma, an insect cell-based assay was screened. This Drosophila Schneider cell line was stably transfected with two vectors: a gene expressing a fusion of the Gal4 DNA binding domain and ROR gamma transactivation domain under the control of the metallothionine promoter and a Photinus luciferase reporter regulated by the Gal4 binding site enhancer, UAS. […] Small molecule inhibitors of ROR gamma activity are detected by a decrease in luciferase reporter activity.
Assay Protocol Summary: For screening, 600 cells in 4 uL/well were dispensed into white solid 1536-well plates (Grenier) using a solenoid-based dispenser. Following transfer of 23 nL compound or DMSO vehicle by a pin tool, the plates were incubated 1 hr at ambient temperature, and 1 uL/well copper sulfate (700 uM final concentration) was added. The plates were centrifuged 15 s at 1000 RPM and incubated 20 hr at ambient temperature. After addition of 1.5 uL Photinus luciferase detection reagent, the plates were incubated 10 min at ambient temperature and then read by an ViewLux (Perkin Elmer) to detect luminescence. Keywords: NIH Roadmap, MLPCN, MLI, MLSMR, qHTS, NCGC, qHTS, nuclear hormone receptor, retinoic acid-related orphan receptor, ROR gamma
% is scaled to controls: 0 for no effect and ±100 for the full control effect; potency is read from the fitted curve at half-maximal effect.

Potency, inactive:
CC(C)(C)c1ccc(-n2ncc3c2CCCC3NC(=O)c2cnccn2)cc1 (stereo not drawn)
COC(=O)CCSc1cc(NCCOC(C)=O)c([N+](=O)[O-])c2nonc12
Oc1ccc(-c2c(-c3ccsc3)sc3ccccc23)cc1
CCOCc1cnc(C)nc1NCC(=O)c1c(C)[nH]c2ccc(OC)cc12
CCCn1c2ccccc2c2nnc(SC(CC)C(=O)Nc3cc(C)on3)nc21 (stereo not drawn)
Nc1ncnc2nc(Cl)[nH]c12
COC(C)=O
O=C(CN1CCN(c2cccc(Cl)c2)CC1)NC1CCCc2ccccc21 (stereo not drawn)
C/C(=C\c1ccccc1)CN1CCN(C(C)C)C(CCO)C1 (stereo not drawn)
COc1ccccc1/C=C/C(=O)NCC(=O)N/N=C/c1ccc2c(c1)OCO2
O=C(c1ccccc1Oc1ccccc1)N1CCN(c2ccccc2)CC1
C=CCC(C=C)S(=O)(=O)c1ccc(C)cc1 (stereo not drawn)
COc1ccc(OC)c(Nc2c3c(nc4ccccc24)CCC3)c1
O=C(CN1C(=O)S/C(=C\c2ccccc2Cl)C1=O)NCCCn1ccnc1
O=c1[nH]c(/C=C/c2cccc3ccccc23)nc2ccccc12
COc1cc(OC)c(CN2CCN(c3ccc(F)cc3)CC2)cc1Br
Cc1ccc(S(=O)(=O)N(Cc2ccccc2)c2ccccc2C(=O)Nc2ccccc2C(=O)NCc2ccco2)cc1
CC1=C(C(=O)OCC(C)C)C(c2ccc(Br)s2)NC(=O)N1 (stereo not drawn)
Cn1c(NC(=O)/C=C/c2ccco2)cc(=O)n(C)c1=O
CC(=O)Nc1ccc(S(=O)(=O)N2CCC(C(=O)c3ccc(Cl)cc3)CC2)cc1
COc1ccccc1NC(=O)Cn1c([N+](=O)[O-])cnc1C
CCCc1c(C)c2ccc(OCC(C)=O)cc2oc1=O
Cc1ccc(S(=O)(=O)N2CCSC2=Nc2ccccc2)cc1
CNC(=O)CSc1nc(N)c2c3c(sc2n1)CCC3
O=C(/C=C/c1ccccc1)NCC(=O)N/N=C/c1cccs1

Potency, inconclusive:
N#CCCn1cc(C=C(C#N)C#N)c(-c2ccc(-c3ccccc3)cc2)n1 35.5 µM [inhibitor, single point]
COc1cccc(N2C(=O)CN(Cc3ccc(OC)c(OC)c3)C2=S)c1 15.8 µM [activator, single point]
CN(C(=O)COC(=O)/C=C/c1ccc(C(F)(F)F)cc1)C1CCS(=O)(=O)C1 (stereo not drawn) 20 µM [activator, partial curve, poor fit]
C=CCNC(=O)c1cc2nc(C3CC3)cc(C(F)F)n2n1 35.5 µM [activator, single point]
N#Cc1cccc(S(=O)(=O)N2CCN(c3ccnc4cc(Cl)ccc34)CC2)c1 8.91 µM [activator, partial curve]
CC(=O)Oc1cccc(N2C(=O)CC(Nc3ccc(N4CCOCC4)cc3)C2=O)c1 (stereo not drawn) 7.94 µM [activator, partial curve, poor fit]
Cc1cc(C)c2nc(N3CCC(C(=O)NCc4ccccn4)CC3)sc2c1 0.447 µM [activator, full curve, poor fit]
Cc1ccc(NC(=O)Cn2cccc2)cc1Cl 11.2 µM [activator, single point]
NC(=O)C1CCN(C(=O)c2ccc3ccccc3c2)CC1 3.98 µM [activator, full curve, poor fit]
COc1cc(OC)c2c(c1C(CCN1CCOCC1)c1ccc(N(C)C)cc1)OC(=O)CC2c1ccc(N(C)C)cc1 (stereo not drawn) 31.6 µM [inhibitor, single point]
O=C(COC(=O)CCCc1nc2ccccc2s1)Nc1ncc(Cl)cc1Cl 3.55 µM [inhibitor, full curve]
O=C(Nc1ccccc1)Nc1ccc(Br)cc1F 35.5 µM [activator, single point]
Cc1ccc(S(=O)(=O)Nc2ccccc2C(=O)OC(C)C(=O)Nc2ccc3ccccc3c2)cc1[N+](=O)[O-] (stereo not drawn) 35.5 µM [activator, single point]
CCCc1nnc(NC(=O)NCCN2C(=O)C3C4C=CC(C4)C3C2=O)s1 (stereo not drawn) 7.94 µM [activator, partial curve]
c1ccc(C2=NN(c3ccccc3)CC2)cc1 39.8 µM [activator, partial curve, poor fit]
O=C(O)c1ccc(-n2nncc2-c2ccco2)cc1 0.891 µM [inhibitor, partial curve]
CCCOc1ccc(C2NC(=S)NC(C)=C2C(=O)c2ccccc2)cc1OC (stereo not drawn) 35.5 µM [inhibitor, single point]
CCCCc1ccc(NC(=O)Nc2cnccn2)cc1 8.91 µM [activator, partial curve]
O=C(c1ccc2c(c1)N(Cc1ccccc1)CCS2)N1CCCCC1 1.26 µM [activator, single point]
O=C(N/N=C/c1cccc2nccnc12)c1ccncc1 35.5 µM [inhibitor, single point]
COc1ccc2c(C)cc(SCC(=O)Nc3cc(C(N)=O)cc(C(N)=O)c3)nc2c1 15.8 µM [inhibitor, single point]
CC1C2CC(C/C2=N/NC(=O)c2cccs2)C1(C)C (stereo not drawn) 0.562 µM [inhibitor, full curve, poor fit]
C=CCc1c(C)nc(SC)nc1Nc1ccccc1 5.62 µM [activator, single point]
CC(C)(C)C(=O)Nc1cc2c3c(c1)CCN3C(=O)CC2 4.47 µM [activator, single point]
CNc1nc(-c2c[nH]c3ccccc23)cs1 14.1 µM [inhibitor, single point]
Cc1c(N2C(=O)C(=O)/C(=C(/O)c3ccccc3)C2c2ccc(F)cc2)c(=O)n(-c2ccccc2)n1C (stereo not drawn) 11.2 µM [inhibitor, partial curve, poor fit]
O=C(CN1CCN(S(=O)(=O)c2ccc(F)cc2)CC1)Nc1ccc(Cl)c(C(F)(F)F)c1 35.5 µM [inhibitor, single point]
Cc1ccn(-c2ccc([N+](=O)[O-])cc2)n1 6.31 µM [activator, partial curve]
O=[N+]([O-])c1cnc(Nc2ccc(Cl)cn2)c([N+](=O)[O-])c1 2.51 µM [inhibitor, full curve, poor fit]
CCCC(=O)Nc1sc2c(c1C#N)CC(C)(C)NC2(C)C 0.112 µM [inhibitor, full curve, poor fit]
CC(C)c1ccc(N(CC(=O)NCCSC(C)(C)C)S(C)(=O)=O)cc1 12.6 µM [activator, single point]
Cc1ccc(N2C(=O)c3ccc(N)cc3C2=O)cc1 2.51 µM [activator, partial curve, poor fit]
COc1ccc(Cn2nnc3c(=O)[nH]c(C4CCN(C(=O)c5ccccc5Cl)CC4)nc32)cc1 11.2 µM [activator, partial curve]
c1ccc(-c2ccc(N3CC4(CCNCC4)C3)cc2)cc1 12.6 µM [inhibitor, single point]
CC(Cc1cccs1)NC(=O)Nc1ccc([N+](=O)[O-])cc1 (stereo not drawn) 39.8 µM [activator, partial curve]

Ordered by heavy-atom count (low to high): some entries from above.
Potency, inconclusive:
Cc1ccn(-c2ccc([N+](=O)[O-])cc2)n1 6.31 µM [activator, partial curve]
CC1C2CC(C/C2=N/NC(=O)c2cccs2)C1(C)C (stereo not drawn) 0.562 µM [inhibitor, full curve, poor fit]
CC(Cc1cccs1)NC(=O)Nc1ccc([N+](=O)[O-])cc1 (stereo not drawn) 39.8 µM [activator, partial curve]

Following part:

Potency, active:
C=CCSc1nc(N(CC)CC)c2sccc2n1 11.2 µM
Cc1cccc(NC(=S)N/N=C/c2cccc(O)c2)c1C 4.47 µM
Cc1onc(-c2ccccc2Cl)c1C(=O)Nc1nnc(-c2ccc(Cl)cc2Cl)s1 14.1 µM
O=C(NN=C1CCCC1)c1ccc([N+](=O)[O-])cc1 11.2 µM
Cc1ccccc1C(=O)NC(=S)Nc1sc2c(c1C#N)CCCC2 3.55 µM
CCCCCn1c(=S)[nH]c2ncccc2c1=O 1.12 µM
Cc1cccc(/C=C2/S/C(=N/N=C3\CC4CCC3(C)C4(C)C)NC2=O)c1 (stereo not drawn) 8.91 µM
COCCCN1CN(Cc2ccccc2)CNC1=S 11.2 µM
COc1ccc2no[n+]([O-])c2c1 6.31 µM
CCCn1c(NC(=O)C23CC4CC(CC(O)(C4)C2)C3)nc2ccccc21 0.708 µM
C=C(C)Cn1c(-c2ccccc2)nc2ccccc21 14.1 µM
COc1ccc(C(c2c(C)[nH]n(C(N)=S)c2=O)C(C#N)C#N)cc1 (stereo not drawn) 4.47 µM
O=C(c1ccccc1)c1ccccc1N1C(=O)C=CC1=O 5.01 µM
O=C(CCS(=O)(=O)Cc1ccccc1)Nc1ncc([N+](=O)[O-])s1 7.94 µM
C/C(=N\NC(N)=S)C1C2C3CC4C5CC(C42)C1C53 (stereo not drawn) 1.12 µM
CCCCNC(=S)N1CCN(c2ccccc2Cl)CC1 11.2 µM

Activity change, negative = inhibition, inactive:
CC(=O)OC[C@@H]1O[C@@H](O/N=C2/C[C@@H](O)[C@@H](O)[C@@H]3[C@@H]4C(=O)N(Cc5ccc6c(c5)OCO6)C(=O)[C@H]4CC[C@H]23)[C@H](OC(C)=O)[C@H](OC(C)=O)[C@@H]1OC(C)=O 6.38% [at 10 µM]
CN1CCC[C@@H](CC2c3ccccc3Sc3ccccc32)C1 -5.44% [at 2.98 µM]
